Assay results taken from article PMC10600005 (Nature, 2023).

What was measured:
[1] = biological target: B. fragilis Cmr3 (Bacteroides fragilis)
[2] = biological target: B. fragilis Cmr3 (Bacteroides fragilis); remark: listed apart in the source

binding [1] | binding [2] | Binder
binds |  | B. fragilis Cmr6 (protein, UniProt A0A2M9V7I0 1-314) MPKNYTLQNASNLGWLFYKDYYRQEPNVDFISTQGKESDTTADFFRKTNQRITAYQLNSESPLVAAFNNHFGTPLQLKTIYPGLITGSGLPHQTGSKGEFKLGFQFDYTTGLPYIPGSSIKGTLRSMFPFSLKDKGSTKRILPEYRKERMEYIRDLIIEVTNINEISDTEIQALEYAIFTNSTPSGKTIEFSLEEKDVFYDAFVADSKDGVMLSDDYITPHGENPLKDPKPILFLKIRPDVTINFYFKLCTTHLYKEKVCSSKQIEEIKKQNDFSSSDYKMITAHQKRNLFEKILLCIGIGAKTNIGYGQLKKL
 | binds | B. fragilis Cmr4 (Cas7) D27A (protein, UniProt A0A9X9NER2 1-279) MTTRMYVINTLSNMHVGSGEVNYGVIANLIQRDSVTNLPNINSSGLKGAIREYFKENEDLVRELFGSAPRDEKTLPGKVRFFEANLLSMPVRSDKVPFLMAISDEVLQELITKMKFFNCEEATQYISHLSTLLDNIKTQAQGTDFAYVFDPLLQGAIIEEVSIRATCPSHIPLQPSLKKLLGDRLVILSHKYFSILSDDNHLPVLSRNNLENGQSANLWYEQVLPRYSRLYFMLMDGNAQSEYLKKFRDTLCTPSTIIQIGANASIGYGYCQISELSPF
binds |  | B. fragilis Cmr4 (Cas7), wild type (protein, UniProt A0A9X9NER2 1-279) MTTRMYVINTLSNMHVGSGEVNYGVIDNLIQRDSVTNLPNINSSGLKGAIREYFKENEDLVRELFGSAPRDEKTLPGKVRFFEANLLSMPVRSDKVPFLMAISDEVLQELITKMKFFNCEEATQYISHLSTLLDNIKTQAQGTDFAYVFDPLLQGAIIEEVSIRATCPSHIPLQPSLKKLLGDRLVILSHKYFSILSDDNHLPVLSRNNLENGQSANLWYEQVLPRYSRLYFMLMDGNAQSEYLKKFRDTLCTPSTIIQIGANASIGYGYCQISELSPF

Like-named read-outs stand apart in the source and are kept apart here. These are yes or no findings as the source states them, for the method shown. In cells and extracts the contact can be indirect. Binding can be weak; no strength is given.
